Survivor count and T/C data for 17 compounds are collected here from PubChem BioAssay AID248 (DTP/NCI, 2004).

The list shows only some results of the screen, not a fair sample: it is rich in T/C values a quarter to a half above the control, in often repeated tests (any T/C) and in doses without a T/C. Other doses and runs of a compound stand elsewhere. T/C gives the treated animals as a percentage of the vehicle group. Some entries give survivors of the animals treated and no T/C: the source files T/C as zero there, which appears to mark a toxic dose or a test without result, not a measured value. Some survivor counts are full or nearly so, which does not show that the dose was tolerated: the source hardly ever lists a survival T/C far under the control, and the zero likely stands for such cases as well. Survivors were counted at the toxicity check, usually on the fifth day, unless a day is given; later deaths do not show. Schedule codes are those of the source, read here as Q, the interval in days (D) or hours (H), X, the number of doses. Some entries hold several experiments; the values are given in rising order. Some structures stand for samples that the source files as different forms (salt, stereo form or complex); doses refer to the form tested. For survival time, the PubChem record calls one and a half times the control and up active, and a quarter to a half above the control has no call in these data; cut-offs in other NCI protocols can differ.

For this assay, the system named is L1210 leukemia ip in BDF1 mice, survival T/C. Nature of the assay: NCI In Vivo Anticancer Drug Screen. Data for tumor model L1210 Leukemia (intraperitoneal) in B6D2F1 (BDF1) mice. Particulars: T/C endpoint: mean survival time, higher T/C = longer survival.
The mark [1] stands for this setting: dose: 100.0 mg/kg/injection, schedule: Q01DX009 (ip), vehicle: saline.
Where [2] appears, read: dose: 200.0 mg/kg/injection, schedule: Q01DX009 (ip), vehicle: water.
[3] abbreviates: dose: 200.0 mg/kg/injection, schedule: Q04DX002 (ip), vehicle: Klucel (hydroxypropylcellulose) (HPC).
Setting [4] is: dose: 400.0 mg/kg/injection, schedule: Q04DX002 (ip), vehicle: Klucel (hydroxypropylcellulose) (HPC).
Where [5] appears, read: dose: 400.0 mg/kg/injection, schedule: Q04DX003 (ip), vehicle: saline with Tween-80.
The mark [6] stands for this setting: dose: 200.0 mg/kg/injection, schedule: Q04DX003 (ip), vehicle: saline with Tween-80.

Turning to `CCOC1CC2c3ccccc3C1c1cccc[n+]12` (stereo not given), the survivor count under setting [1] is 3 of 6 and the survivor count (dose: 115.0 mg/kg/injection, schedule: Q01DX009 (ip), vehicle: saline) is 0 of 6.
For `CCCCOP(=O)(OCCCC)N1CCCCC1`, the survivor count (dose: 100.0 mg/kg/injection, schedule: Q04DX002 (ip), vehicle: saline with Tween-80) is 1 of 3; the survivor count (dose: 200.0 mg/kg/injection, schedule: Q04DX002 (ip), vehicle: saline with Tween-80) was 1 of 3; the survivor count (dose: 400.0 mg/kg/injection, schedule: Q04DX002 (ip), vehicle: saline with Tween-80) is 0 of 3.
Regarding `CCOC(=O)c1cnc2c(ccc3ncccc32)c1NCCCN(CC)CC`, the survivor count (dose: 100.0 mg/kg/injection, schedule: Q01DX009 (ip), vehicle: Klucel (hydroxypropylcellulose) (HPC)) is 1 of 3 and the survivor count (dose: 200.0 mg/kg/injection, schedule: Q01DX009 (ip), vehicle: Klucel (hydroxypropylcellulose) (HPC)) is recorded as 0 of 3.
For the compound `O=C(Nc1nccs1)Nc1cc(C(F)(F)F)ccc1Cl`, the survivor count reads like this: (dose: 200.0 mg/kg/injection, schedule: Q01DX009 (ip), vehicle: carboxymethylcellulose (CMC)) 0 of 3 and 4 of 6; (dose: 400.0 mg/kg/injection, schedule: Q04DX002 (ip), vehicle: carboxymethylcellulose (CMC)) 3 of 3 and 6 of 6.
As for `CCNC(C)(C)C(SSSC(c1ccc(Br)cc1)C(C)(C)NCC)c1ccc(Br)cc1` (stereo not given), the survivor count is listed as 2 of 6 under setting [2] and 0 of 6 (dose: 400.0 mg/kg/injection, schedule: Q01DX009 (ip), vehicle: water).
For the compound `Cc1cc(C)c(NC(=O)N(CCCl)N=O)c(C)c1`, the T/C was 129 % of control (dose: 2.8 mg/kg/injection, schedule: Q01DX001 (ip), vehicle: other) and 137 % of control (dose: 5.62 mg/kg/injection, schedule: Q01DX001 (ip), vehicle: other). For the same compound, the survivor count (dose: 125.0 mg/kg/injection, schedule: Q01DX001 (ip), vehicle: other) is on record as 6 of 6; the survivor count (dose: 128.0 mg/kg/injection, schedule: Q01DX001 (ip), vehicle: other) is recorded as 8 of 10; the survivor count (dose: 250.0 mg/kg/injection, schedule: Q01DX001 (ip), vehicle: other) was 2 of 6; the survivor count (dose: 500.0 mg/kg/injection, schedule: Q01DX001 (ip), vehicle: other) was 0 of 6.
As for `NC(CSCC(N)=NCC1C2CC3CC(C2)CC1C3)=NCC1C2CC3CC(C2)CC1C3` (stereo not given), the survivor count runs as follows: under setting [3], 1 of 3; under setting [4], 1 of 3.
For the compound `CC(=O)O[C@H]1[C@H]2O[C@]23[C@@H]2CC[C@@H]4C[C@@H](O)CC[C@]4(C)[C@H]2CC[C@]3(C)[C@H]1c1ccc(=O)oc1`, the survivor count reads like this: (dose: 15.0 mg/kg/injection, schedule: Q01DX009 (ip), vehicle: Klucel (hydroxypropylcellulose) (HPC)) 6 of 6; (dose: 30.0 mg/kg/injection, schedule: Q01DX009 (ip), vehicle: Klucel (hydroxypropylcellulose) (HPC)) 3 of 6; (dose: 30.0 mg/kg/injection, schedule: Q04DX003 (ip), vehicle: Klucel (hydroxypropylcellulose) (HPC)) 1 of 6; (dose: 40.0 mg/kg/injection, schedule: Q01DX001 (ip), vehicle: other) 2 of 4; (dose: 50.0 mg/kg/injection, schedule: Q01DX001 (ip), vehicle: other) 0 of 4; (dose: 60.0 mg/kg/injection, schedule: Q04DX003 (ip), vehicle: Klucel (hydroxypropylcellulose) (HPC)) 0 of 6. Moreover, the survivor count by setting is: (dose: 80.0 mg/kg/injection, schedule: Q01DX001 (ip), vehicle: other) 0 of 4; (dose: 100.0 mg/kg/injection, schedule: Q01DX001 (ip), vehicle: other) 0 of 4; (dose: 120.0 mg/kg/injection, schedule: Q04DX003 (ip), vehicle: Klucel (hydroxypropylcellulose) (HPC)) 0 of 6; (dose: 200.0 mg/kg/injection, schedule: Q01DX001 (ip), vehicle: other) 0 of 4; (dose: 400.0 mg/kg/injection, schedule: Q01DX001 (ip), vehicle: other) 0 of 4.
`CC1=C(/C=C/C(C)=C/C=C/C(C)=C/C(=O)O)C(C)(C)CCC1`: the survivor count (dose: 134.0 mg/kg/injection, schedule: Q01DX009 (ip), vehicle: steroid suspending solution) was 6 of 6; the survivor count (dose: 200.0 mg/kg/injection, schedule: Q01DX009 (ip), vehicle: steroid suspending solution) is on record as 5 of 6; the survivor count (dose: 300.0 mg/kg/injection, schedule: Q01DX009 (ip), vehicle: steroid suspending solution) was 6 of 6.
As to `CSc1ncc2cnccn12`, the survivor count under setting [2] is 0 of 6; the survivor count (dose: 200.0 mg/kg/injection, schedule: Q04DX003 (ip), vehicle: saline) is 0 of 6; the survivor count (dose: 200.0 mg/kg/injection, schedule: Q04DX003 (ip), vehicle: water) is recorded as 1 of 6; the survivor count (dose: 400.0 mg/kg/injection, schedule: Q04DX003 (ip), vehicle: water) was 0 of 6.
For the compound `CC1CC(C(C)(C)C)CCC1S` (stereo not given), under “dose: 400.0 mg/kg/injection, schedule: Q01DX009 (ip), vehicle: saline”, the survivor count is 4 of 6.
For the compound `C1CC[N-]CC1.Oc1ccccc1C=NCCN=Cc1ccccc1O.[CH3-].[Rh+2]`, the survivor count under setting [5] was 3 of 6.
As to `C(=C\c1cccnc1)/c1ccncc1`, the survivor count under setting [6] is 1 of 6.
As for `O=C(/C=C/c1ccccc1)N/N=C/c1ccccc1Cl`, the T/C under setting [3] was 126 % of control.
Take `CCCC[P+](CCCC)(CCCC)C(C)C`: the survivor count is 2 of 6 (dose: 50.0 mg/kg/injection, schedule: Q01DX009 (ip), vehicle: saline with Tween-80); 1 of 6 (dose: 50.0 mg/kg/injection, schedule: Q01DX009 (ip), vehicle: saline); 0 of 6 under setting [1]; 1 of 6 and 2 of 6 (dose: 100.0 mg/kg/injection, schedule: Q04DX003 (ip), vehicle: saline with Tween-80); 0 of 6 (dose: 200.0 mg/kg/injection, schedule: Q01DX009 (ip), vehicle: saline); 0 of 6 under setting [6]. Besides, under setting [5], the survivor count is on record as 0 of 6.
With `CC(C)(C)OC[CH2][Hg][I]`, the survivor count is 0 of 3 (dose: 50.0 mg/kg/injection, schedule: Q04DX002 (ip), vehicle: Klucel (hydroxypropylcellulose) (HPC)); 0 of 3 (dose: 100.0 mg/kg/injection, schedule: Q04DX002 (ip), vehicle: Klucel (hydroxypropylcellulose) (HPC)); 0 of 3 under setting [3]; 0 of 3 under setting [4].
For the compound `[I][Hg][CH2]C1COCC([CH2][Hg][I])O1.[I][Hg][CH2]C1COCC([CH2][Hg][I])O1` (stereo not given), the survivor count (dose: 20.0 mg/kg/injection, schedule: Q01DX001 (ip), vehicle: carboxymethylcellulose (CMC)) is given as 6 of 6; the survivor count (dose: 80.0 mg/kg/injection, schedule: Q04DX003 (ip), vehicle: carboxymethylcellulose (CMC)) is 3 of 6; the survivor count (dose: 160.0 mg/kg/injection, schedule: Q01DX001 (ip), vehicle: carboxymethylcellulose (CMC)) is 3 of 6.
